Measurements reported in patent WO2011080050A2 (dated 2011).

Experiments:
[1] = target: human CCL21 (human); experiment: dot blot (legend of Figure 14)
[2] = target: human CCL21 (human); experiment: dot blot, huCCL21 native, heated, heated and reduced, or heated, reduced and SDS treated; anti-human IgG detection

binding [1]: binds | binding [2]: binds
B1: MOR06935_g3-23_g3j (antibody, V domains shown)
VH: EVQLLESGGGLVQPGGSLRLSCAASGFTFNSYSMSWVRQAPGKGLEWVSAISMEGYSKSYADSVKGRFTISRDNSKNTLYLQMNSLRAEDTAVYYCARGYGYYFDVWGQGTLVTVSS
VL: SYELTQPLSVSVALGQTARITCGGDSIGSQYASWYQQKPGQAPVLVIYDDNERPSGIPERFSGSNSGNTATLTISRAQAGDEADYYCGSWDSNPTHVFGGGTKLTVLG
notes: also called QBP359; FW repaired germlined MOR06935

No constants are given. Whether binding was seen depends on the method and setting. A result given as binding can be weak or reduced; the word gives no strength.
